These results are taken from publication PMC11914105.

Protein sequences, listed by entry. Tags and fused reporters are not part of them.
UniProt Q8IZR5: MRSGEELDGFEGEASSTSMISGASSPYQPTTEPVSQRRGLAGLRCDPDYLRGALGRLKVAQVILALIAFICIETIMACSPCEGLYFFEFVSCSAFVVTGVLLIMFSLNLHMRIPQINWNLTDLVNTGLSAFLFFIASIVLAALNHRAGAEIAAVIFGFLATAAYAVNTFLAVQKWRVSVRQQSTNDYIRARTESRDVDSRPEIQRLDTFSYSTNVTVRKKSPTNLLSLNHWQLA
UniProt Q8CJ61: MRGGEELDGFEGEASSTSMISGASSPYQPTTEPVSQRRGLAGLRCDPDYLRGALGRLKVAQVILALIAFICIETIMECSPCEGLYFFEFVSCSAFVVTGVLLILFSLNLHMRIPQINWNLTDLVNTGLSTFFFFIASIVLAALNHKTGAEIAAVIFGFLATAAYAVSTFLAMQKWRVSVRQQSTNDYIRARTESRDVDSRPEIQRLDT
UniProt Q9UL25: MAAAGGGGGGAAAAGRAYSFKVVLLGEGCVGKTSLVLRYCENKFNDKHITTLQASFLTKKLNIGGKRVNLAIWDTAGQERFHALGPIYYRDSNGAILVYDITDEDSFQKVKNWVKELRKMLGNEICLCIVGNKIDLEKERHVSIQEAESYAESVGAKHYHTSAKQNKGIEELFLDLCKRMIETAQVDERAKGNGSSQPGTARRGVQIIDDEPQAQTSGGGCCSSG

Experiment [1] concerns the target CMTM4, endogenous in human H292 and HCC827 cells (human (endogenous in H292 and HCC827)) (UniProt Q8IZR5). Description: co-IP; 4T1, LLC, H292 or HCC827 cells without transfection, starved overnight without serum; protein extract immuno-precipitated with anti-CMTM4 antibody, western blot with antibodies against EGFR and CMTM4.
In experiment [2] the target is CMTM4, endogenous in mouse 4T1 and LLC cells (mouse (endogenous in 4T1 and LLC)) (UniProt Q8CJ61). The experiment is described as above.
For another experiment, the target named is human CMTM4-Myc (human) (UniProt Q8IZR5). Description: co-IP; lysate from 293T cells transfected with human CMTM4-Myc with or without Rab21-HA; immuno-precipitated by Myc antibody, blotted by HA antibody.

Results are given in words; binding and its absence hold for the method and conditions named. Binding seen in cells or lysates may run through a third protein. Some results given as binding are weak or reduced against the parent protein; the word gives no strength.

Regarding “EGFR, endogenous in human H292 cells (from UniProt P00533 25-1210) (receptor)”, the binding entry in experiment [1] is given as “binds”. As for “EGFR, endogenous in mouse 4T1 and LLC cells (from UniProt Q01279 25-1210) (receptor)”, the binding result in experiment [2] was “binds”. In the case of Rab21-HA (from UniProt Q9UL25 1-225), the binding result in the experiment with human CMTM4-Myc (human) is recorded as “binds”.
